Experimental data reported in PMC7255015.
No constants are given. Whether binding was seen depends on the method and setting. In cells and extracts the contact can be indirect. Some binding calls cover weakened binding; strength is not graded here. Sequences can lack the tags named with a protein.

Molecular target: T1, Flag-tagged CD82 (wild type) (human) (UniProt P27701)
T1 sequence (chain, N-glycosylated at Asn129, Asn157 and Asn198): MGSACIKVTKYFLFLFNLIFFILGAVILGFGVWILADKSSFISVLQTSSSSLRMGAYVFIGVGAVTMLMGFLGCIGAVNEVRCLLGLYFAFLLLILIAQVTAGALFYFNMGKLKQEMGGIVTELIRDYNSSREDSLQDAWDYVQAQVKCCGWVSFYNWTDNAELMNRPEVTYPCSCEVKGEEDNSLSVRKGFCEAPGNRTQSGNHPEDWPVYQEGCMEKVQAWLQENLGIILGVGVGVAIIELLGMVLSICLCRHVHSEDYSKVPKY
Assay: co-IP; anti-Flag antibody and G-agarose beads overnight, lysates of stable ES2 cells in IP buffer (50 mM Tris-HCl pH 7.4, 150 mM NaCl, 0.1% NP-40, 5 mM EDTA); western blot of the precipitate

- binding: binds
B1: glycosyltransferase MGAT3 (enzyme, UniProt Q09327 1-533)
chain: MKMRRYKLFLMFCMAGLCLISFLHFFKTLSYVTFPRELASLSPNLVSSFFWNNAPVTPQASPEPGGPDLLRTPLYSHSPLLQPLPPSKAAEELHRVDLVLPEDTTEYFVRTKAGGVCFKPGTKMLERPPPGRPEEKPEGANGSSARRPPRYLLSARERTGGRGARRKWVECVCLPGWHGPSCGVPTVVQYSNLPTKERLVPREVPRRVINAINVNHEFDLLDVRFHELGDVVDAFVVCESNFTAYGEPRPLKFREMLTNGTFEYIRHKVLYVFLDHFPPGGRQDGWIADDYLRTFLTQDGVSRLRNLRPDDVFIIDDADEIPARDGVLFLKLYDGWTEPFAFHMRKSLYGFFWKQPGTLEVVSGCTVDMLQAVYGLDGIRLRRRQYYTMPNFRQYENRTGHILVQWSLGSPLHFAGWHCSWCFTPEGIYFKLVSAQNGDFPRWGDYEDKRDLNYIRGLIRTGGWFDGTQQEYPPADPSEHMYAPKYLLKNYDRFHYLLDNPYQEPRSTAAGGWRHRGPEGRPPARGKLDEAEV
